Laboratory results reported in article PMC9980208.

The chains behind the UniProt entries cited, without tags or fusion partners.
UniProt P62318: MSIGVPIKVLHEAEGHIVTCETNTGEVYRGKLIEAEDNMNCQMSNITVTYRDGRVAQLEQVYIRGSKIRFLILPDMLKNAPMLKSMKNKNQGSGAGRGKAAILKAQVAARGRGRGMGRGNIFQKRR

Molecular target: T1, recombinant 6His-tagged TDRD1 eTD4 (human) (UniProt Q9BXT4)
T1 sequence: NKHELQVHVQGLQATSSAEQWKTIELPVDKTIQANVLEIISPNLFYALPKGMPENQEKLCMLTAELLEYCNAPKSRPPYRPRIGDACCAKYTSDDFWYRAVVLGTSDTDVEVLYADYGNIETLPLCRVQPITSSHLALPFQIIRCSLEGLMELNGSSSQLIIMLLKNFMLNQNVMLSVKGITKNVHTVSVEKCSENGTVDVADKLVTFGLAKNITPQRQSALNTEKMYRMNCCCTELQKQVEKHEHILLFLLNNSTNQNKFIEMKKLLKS
Assay: affinity purification with mass spectrometry; purified 6His-tagged eTD4 as bait (BSA as control bait), VCaP cell cytoplasmic fraction as input, Ni-NTA beads, SDS-PAGE, in-gel digestion, nanoHPLC-MS/MS, iBAQ; only the target purified

How did the binding turn out when “endogenous SNRPD3 (from UniProt P62318 1-126)” was run?
Its binding is “binds”.

These are yes or no findings as the source states them, for the method shown. Binding seen in cells or lysates may run through a third protein. These calls come from enrichment with a bait or labelling near it, and not all partners need be listed. Tags and fused reporters may be left off the sequences shown.
